This experiment has as its target T1, IFT122 (human) (UniProt Q9HBG6).
T1 sequence: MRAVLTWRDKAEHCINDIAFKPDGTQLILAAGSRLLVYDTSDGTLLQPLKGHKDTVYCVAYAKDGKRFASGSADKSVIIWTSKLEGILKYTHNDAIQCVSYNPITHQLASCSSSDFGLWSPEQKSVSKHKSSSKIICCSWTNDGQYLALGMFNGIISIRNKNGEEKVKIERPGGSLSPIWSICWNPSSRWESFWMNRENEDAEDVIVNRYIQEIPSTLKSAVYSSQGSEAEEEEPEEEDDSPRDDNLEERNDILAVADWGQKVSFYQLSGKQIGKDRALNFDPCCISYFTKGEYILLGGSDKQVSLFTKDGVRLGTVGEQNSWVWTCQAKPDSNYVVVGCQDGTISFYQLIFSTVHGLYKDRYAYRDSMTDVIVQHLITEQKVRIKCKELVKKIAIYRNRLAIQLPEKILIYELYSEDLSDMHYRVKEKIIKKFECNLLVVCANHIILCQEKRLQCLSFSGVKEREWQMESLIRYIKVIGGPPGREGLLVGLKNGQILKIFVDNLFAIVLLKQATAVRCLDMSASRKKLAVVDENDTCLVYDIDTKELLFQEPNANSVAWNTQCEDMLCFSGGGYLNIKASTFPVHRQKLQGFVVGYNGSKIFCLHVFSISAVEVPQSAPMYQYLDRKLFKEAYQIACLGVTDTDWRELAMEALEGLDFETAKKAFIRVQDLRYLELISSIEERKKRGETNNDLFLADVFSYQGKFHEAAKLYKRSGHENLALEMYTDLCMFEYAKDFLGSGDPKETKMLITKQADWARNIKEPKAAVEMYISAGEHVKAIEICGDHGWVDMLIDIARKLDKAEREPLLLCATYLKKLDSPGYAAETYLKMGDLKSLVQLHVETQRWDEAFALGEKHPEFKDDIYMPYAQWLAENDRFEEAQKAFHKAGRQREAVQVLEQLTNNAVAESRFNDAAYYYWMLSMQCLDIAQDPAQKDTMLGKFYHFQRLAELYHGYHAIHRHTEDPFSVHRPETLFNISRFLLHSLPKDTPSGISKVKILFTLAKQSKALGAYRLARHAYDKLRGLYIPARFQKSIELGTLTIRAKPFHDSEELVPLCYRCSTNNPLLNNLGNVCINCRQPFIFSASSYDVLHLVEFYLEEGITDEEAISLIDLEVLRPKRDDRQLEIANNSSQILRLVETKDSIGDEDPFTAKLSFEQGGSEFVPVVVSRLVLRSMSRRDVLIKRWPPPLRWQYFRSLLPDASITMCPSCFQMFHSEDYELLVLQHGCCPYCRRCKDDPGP
Kind of experiment: cryo-EM structure; IFT-A complex co-expressed in HEK293F and co-purified; composite map from the IFT-A and IFT-A (-IFT139) datasets; 20 mM Tris-HCl pH 8.0, 200 mM NaCl, 2 mM DTT, 2 mM FFC-8 added; both purified.

Results are given in words; binding and its absence hold for the method and conditions named. Some entries that bind do so weakly or less than the wild type.

B1: IFT121 (WDR35) (protein, UniProt Q9P2L0 1-1181)
chain: MFFYLSKKISIPNNVKLQCVSWNKEQGFIACGGEDGLLKVLKLETQTDDAKLRGLAAPSNLSMNQTLEGHSGSVQVVTWNEQYQKLTTSDENGLIIVWMLYKGSWIEEMINNRNKSVVRSMSWNADGQKICIVYEDGAVIVGSVDGNRIWGKDLKGIQLSHVTWSADSKVLLFGMANGEIHIYDNQGNFMIKMKLSCLVNVTGAISIAGIHWYHGTEGYVEPDCPCLAVCFDNGRCQIMRHENDQNPVLIDTGMYVVGIQWNHMGSVLAVAGFQKAAMQDKDVNIVQFYTPFGEHLGTLKVPGKEISALSWEGGGLKIALAVDSFIYFANIRPNYKWGYCSNTVVYAYTRPDRPEYCVVFWDTKNNEKYVKYVKGLISITTCGDFCILATKADENHPQEENEMETFGATFVLVLCNSIGTPLDPKYIDIVPLFVAMTKTHVIAASKEAFYTWQYRVAKKLTALEINQITRSRKEGRERIYHVDDTPSGSMDGVLDYSKTIQGTRDPICAITASDKILIVGRESGTIQRYSLPNVGLIQKYSLNCRAYQLSLNCNSSRLAIIDISGVLTFFDLDARVTDSTGQQVVGELLKLERRDVWDMKWAKDNPDLFAMMEKTRMYVFRNLDPEEPIQTSGYICNFEDLEIKSVLLDEILKDPEHPNKDYLINFEIRSLRDSRALIEKVGIKDASQFIEDNPHPRLWRLLAEAALQKLDLYTAEQAFVRCKDYQGIKFVKRLGKLLSESMKQAEVVGYFGRFEEAERTYLEMDRRDLAIGLRLKLGDWFRVLQLLKTGSGDADDSLLEQANNAIGDYFADRQKWLNAVQYYVQGRNQERLAECYYMLEDYEGLENLAISLPENHKLLPEIAQMFVRVGMCEQAVTAFLKCSQPKAAVDTCVHLNQWNKAVELAKNHSMKEIGSLLARYASHLLEKNKTLDAIELYRKANYFFDAAKLMFKIADEEAKKGSKPLRVKKLYVLSALLIEQYHEQMKNAQRGKVKGKSSEATSALAGLLEEEVLSTTDRFTDNAWRGAEAYHFFILAQRQLYEGCVDTALKTALHLKDYEDIIPPVEIYSLLALCACASRAFGTCSKAFIKLKSLETLSSEQKQQYEDLALEIFTKHTSKDNRKPELDSLMEGGEGKLPTCVATGSPITEYQFWMCSVCKHGVLAQEISHYSFCPLCHSPVG
For B1, the binding entry is “binds”.

Values taken from publication PMC10066299.
